Source: paper PMC11102558

Amino acid sequences for entries named in this document (tags omitted).
UniProt P46940: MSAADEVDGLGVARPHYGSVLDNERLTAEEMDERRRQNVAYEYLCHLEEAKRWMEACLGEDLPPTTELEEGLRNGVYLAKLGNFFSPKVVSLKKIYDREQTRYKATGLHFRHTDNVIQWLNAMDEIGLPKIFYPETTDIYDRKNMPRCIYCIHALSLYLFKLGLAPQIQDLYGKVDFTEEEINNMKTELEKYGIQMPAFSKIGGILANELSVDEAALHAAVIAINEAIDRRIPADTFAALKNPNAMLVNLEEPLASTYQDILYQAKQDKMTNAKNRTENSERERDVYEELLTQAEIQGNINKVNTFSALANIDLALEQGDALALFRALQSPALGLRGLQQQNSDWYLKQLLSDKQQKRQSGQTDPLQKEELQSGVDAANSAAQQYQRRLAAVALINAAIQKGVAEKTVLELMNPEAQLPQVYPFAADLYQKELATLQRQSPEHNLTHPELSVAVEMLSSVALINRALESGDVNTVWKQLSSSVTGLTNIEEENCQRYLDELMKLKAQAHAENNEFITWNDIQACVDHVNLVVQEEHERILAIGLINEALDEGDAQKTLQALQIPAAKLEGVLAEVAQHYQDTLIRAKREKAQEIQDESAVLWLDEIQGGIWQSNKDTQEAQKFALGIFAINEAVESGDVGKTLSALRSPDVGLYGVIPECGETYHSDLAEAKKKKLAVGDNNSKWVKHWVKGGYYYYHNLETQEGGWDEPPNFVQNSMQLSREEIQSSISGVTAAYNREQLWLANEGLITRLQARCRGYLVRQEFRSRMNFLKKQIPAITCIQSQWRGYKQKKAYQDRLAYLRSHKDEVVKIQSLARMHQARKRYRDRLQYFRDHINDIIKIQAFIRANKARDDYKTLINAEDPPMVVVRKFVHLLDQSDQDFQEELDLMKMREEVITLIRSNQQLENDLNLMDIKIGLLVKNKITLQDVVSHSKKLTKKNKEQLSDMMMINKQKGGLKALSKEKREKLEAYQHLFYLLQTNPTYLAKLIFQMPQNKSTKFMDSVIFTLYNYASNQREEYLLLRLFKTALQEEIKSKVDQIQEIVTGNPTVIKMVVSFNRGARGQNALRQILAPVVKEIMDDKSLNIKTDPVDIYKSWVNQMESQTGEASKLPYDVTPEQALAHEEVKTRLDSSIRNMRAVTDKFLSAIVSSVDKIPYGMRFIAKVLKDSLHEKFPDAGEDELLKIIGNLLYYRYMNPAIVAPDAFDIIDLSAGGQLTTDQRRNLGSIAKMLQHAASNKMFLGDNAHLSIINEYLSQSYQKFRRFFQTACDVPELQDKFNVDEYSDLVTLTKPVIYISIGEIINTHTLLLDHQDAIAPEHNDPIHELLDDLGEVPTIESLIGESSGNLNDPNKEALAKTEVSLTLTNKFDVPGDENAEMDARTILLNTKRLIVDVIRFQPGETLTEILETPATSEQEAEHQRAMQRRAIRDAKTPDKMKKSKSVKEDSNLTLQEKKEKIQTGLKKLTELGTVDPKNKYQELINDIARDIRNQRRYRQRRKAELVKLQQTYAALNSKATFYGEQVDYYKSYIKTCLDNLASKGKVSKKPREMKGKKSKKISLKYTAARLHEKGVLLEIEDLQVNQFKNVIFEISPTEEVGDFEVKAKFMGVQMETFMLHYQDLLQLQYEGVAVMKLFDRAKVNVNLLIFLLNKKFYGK

Target: T1, FLAG-tagged ROBO4 (Roundabout4), expressed from an adenoviral vector in HUVECs (UniProt Q8WZ75)
T1 sequence: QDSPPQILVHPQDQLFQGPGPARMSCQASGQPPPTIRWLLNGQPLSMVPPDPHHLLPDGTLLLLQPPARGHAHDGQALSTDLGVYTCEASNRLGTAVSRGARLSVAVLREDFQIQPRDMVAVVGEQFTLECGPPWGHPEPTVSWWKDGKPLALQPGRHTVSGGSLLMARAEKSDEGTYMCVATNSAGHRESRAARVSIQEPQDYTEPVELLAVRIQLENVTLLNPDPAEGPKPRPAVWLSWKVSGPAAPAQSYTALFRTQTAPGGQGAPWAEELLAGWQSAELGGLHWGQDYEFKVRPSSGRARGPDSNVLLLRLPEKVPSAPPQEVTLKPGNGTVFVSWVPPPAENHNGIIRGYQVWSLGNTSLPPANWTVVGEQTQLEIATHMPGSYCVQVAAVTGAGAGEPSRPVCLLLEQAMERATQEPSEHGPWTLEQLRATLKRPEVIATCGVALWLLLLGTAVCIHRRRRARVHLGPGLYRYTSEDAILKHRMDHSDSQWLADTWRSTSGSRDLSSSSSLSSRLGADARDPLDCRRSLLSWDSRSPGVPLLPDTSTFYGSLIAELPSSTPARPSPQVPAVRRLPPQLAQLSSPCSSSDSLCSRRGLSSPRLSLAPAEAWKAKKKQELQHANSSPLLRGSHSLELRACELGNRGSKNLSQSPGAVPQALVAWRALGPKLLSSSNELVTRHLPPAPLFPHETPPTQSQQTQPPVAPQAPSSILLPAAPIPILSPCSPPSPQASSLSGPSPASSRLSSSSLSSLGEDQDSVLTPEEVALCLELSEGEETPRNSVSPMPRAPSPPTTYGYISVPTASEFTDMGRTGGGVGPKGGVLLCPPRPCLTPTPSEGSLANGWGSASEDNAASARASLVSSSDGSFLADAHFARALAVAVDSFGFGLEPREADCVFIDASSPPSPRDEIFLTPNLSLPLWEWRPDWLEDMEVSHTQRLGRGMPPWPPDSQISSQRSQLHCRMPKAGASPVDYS
Experiment: affinity purification with mass spectrometry; HUVECs infected with adenoviral vector for ROBO4-FLAG (control AcGFP), 36 h; lysis in 50 mM Tris-HCl pH 7.4, 150 mM NaCl, 1% Triton X-100, 0.5% sodium deoxycholate, 1 mM EDTA; FLAG immunoprecipitation kit; trypsin digest, LC-MS/MS

- binding: binds
Substance: Ras GTPase-activating-like protein IQGAP1 (IQ motif-containing GTPase-activating protein 1), endogenous in HUVECs (from UniProt P46940 1-1657)

Results are given in words; binding and its absence hold for the method and conditions named. In cells and extracts the contact can be indirect. These calls come from enrichment with a bait or labelling near it, and not all partners need be listed. Sequences can lack the tags named with a protein.
